PubChem BioAssay AID686938 – Drosophila RNAi Screening Center | 2013
Assay: 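Knock-downs reducing store-operated calcium influx in Drosophila cells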 (primary screen). Cell system: Drosophila S2R+ cells. Knock-down reagent: long dsRNA against Drosophila genes, about 0.25 µg dsRNA per well, roughly 10,000 cells. Time to read-out: 5 days of knock-down before the calcium assay. Conditions: thapsigargin (SERCA pump blocker) to empty calcium stores; entry signal taken 4 min after adding it. Read-out: 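Per-well fluo-4 fluorescence in two replicates, unnormalised, measured in resting cells and 4 min after store depletion by the SERCA blocker thapsigargin; ratio of the two present in few wells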. Direction: calcium entry signal: higher = stronger calcium signal after store depletion; resting calcium signal: higher = higher resting calcium signal. Rule for the call: 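Called when the plate z-score of the entry-to-rest ratio, mean of duplicates, falls below −3; wells with low overall dye signal (Fmax z below −2) or more than five off-targets excluded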. Meaning of the calls: active = strongly reduced calcium entry; inactive = no strong reduction.
In all, the deposit lists about 23,000 reagents; below is an unselected part of those that have a named target and a result. Of all reagents, 75 (0.33%) got an active call. 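Raw plate signals without normalisation; calls rest on plate z-scores that were not deposited; ratio present for only 364 wells.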 Unmarked entries are inactive. The numbers tell different reagents against one gene apart. Not given: the dose of the treatment.

Gene,reagent,"calcium entry signal, replicate 1 (fluorescence units)","calcium entry signal, replicate 2 (fluorescence units)","resting calcium signal, replicate 1 (fluorescence units)","resting calcium signal, replicate 2 (fluorescence units)"
amon (GeneID 43215),1,3.86e7,3.60e7,1.90e7,1.76e7
amon (GeneID 43215),2,2.72e7,5.01e7,1.44e7,2.60e7
CG12123 (GeneID 31777),1,2.23e7,2.66e7,1.07e7,1.16e7
SmydA-7 (GeneID 36916),1,4.22e7,4.10e7,1.93e7,1.87e7
I-t (GeneID 41414),1,4.19e7,3.54e7,2.16e7,1.96e7
CG13230 (GeneID 50237),1,1.72e7,3.11e7,1.01e7,1.40e7
Dp (GeneID 36461),1,1.61e7,1.93e7,8.23e6,9.96e6
MED24 (GeneID 38914),1,2.83e7,3.10e7,1.38e7,1.42e7
CG9922 (GeneID 41708),1,3.64e7,5.77e7,1.81e7,5.77e7
Xpac (GeneID 31357),1,3.49e7,4.58e7,1.57e7,1.97e7
CRMP (GeneID 40675),1,2.72e7,4.89e7,1.44e7,2.27e7
CRMP (GeneID 40675),2,3.04e7,3.58e7,1.35e7,1.54e7
CG31678 (GeneID 35327),1,2.49e7,,1.42e7,
CG31678 (GeneID 35327),2,4.92e7,6.37e7,2.45e7,2.60e7
CG33169 (GeneID 40504),1,2.31e7,3.27e7,1.17e7,1.32e7
CG11788 (GeneID 37295),1,5.63e7,5.07e7,2.41e7,2.43e7
mael (GeneID 40489),1,2.89e7,4.06e7,1.47e7,3.04e7
CG1582 (GeneID 32021),1,2.40e7,3.35e7,1.11e7,1.56e7
CG18766 (GeneID 59150),1,3.53e7,4.54e7,1.63e7,2.06e7
CG34054 (GeneID 3885601),1,4.24e7,5.41e7,2.22e7,2.40e7
Setd3 (GeneID 31638),1,3.76e7,5.81e7,1.91e7,2.38e7
Setd3 (GeneID 31638),2,3.47e7,5.03e7,1.68e7,2.15e7
Edg91 (GeneID 42117),1,2.90e7,5.45e7,1.62e7,6.59e7
p24-1 (GeneID 32140),1,2.29e7,3.19e7,1.32e7,1.79e7
CG32473 (GeneID 41636),1,2.90e7,5.21e7,1.49e7,7.00e7
CG32473 (GeneID 41636),2,4.45e7,4.80e7,1.70e7,2.09e7
CG14913 (GeneID 34532),1,2.85e7,3.73e7,1.38e7,1.54e7
Ccz1 (GeneID 38455),1,3.35e7,4.50e7,1.93e7,2.16e7
Pfas (GeneID 33847),1,4.52e7,,2.42e7,
E(Pc) (GeneID 36238),1,6.18e7 (active),9.44e7,3.97e7,6.44e7
E(Pc) (GeneID 36238),2,2.94e7 (active),5.05e7,1.97e7,3.49e7
ENGase (GeneID 32726),1,3.98e7,2.86e7,1.91e7,1.51e7
ENGase (GeneID 32726),2,2.39e7,2.30e7,1.34e7,1.13e7
CG8562 (GeneID 38828),1,2.67e7,4.60e7,1.31e7,1.78e7
CG8701 (GeneID 35812),1,4.05e7,3.76e7,1.71e7,1.79e7
CG33225 (GeneID 2768860),1,2.98e7,5.07e7,1.52e7,5.04e7
mRpL32 (GeneID 43698),1,3.45e7,6.45e7,1.67e7,2.33e7
ND-51L2 (GeneID 36695),1,3.62e7,4.89e7,1.81e7,2.07e7
Tcs4 (GeneID 32982),1,3.14e7,2.46e7,1.43e7,1.13e7
vls (GeneID 35289),1,3.21e7,,1.92e7,
